PubChem BioAssay AID686943 | Drosophila RNAi Screening Center – 2013

Purpose: 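Search across the genome for regulators of signalling from receptor tyrosine kinase to ERK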 (primary screen)
Cell system: Drosophila S2R+ haemocyte-like cells expressing YFP-tagged ERK (Rolled)
Reagents: long dsRNA against Drosophila genes
Treatment: insulin stimulation versus unstimulated cells; dose and duration not given
Detection: 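Per-plate z-scores of phospho-ERK immunostaining normalised to YFP-tagged ERK, measured with and without insulin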
Reading the numbers: replicate 1, z-score of dpERK with insulin and replicate 2, z-score of dpERK with insulin: higher = more active ERK per ERK-YFP after insulin; replicate 1, z-score of dpERK under basal conditions: higher = more basal active ERK per ERK-YFP; replicate 1, z-score of ERK-YFP with insulin: higher = more YFP-tagged ERK signal
In all, the deposit lists about 23,000 reagents; below is a random part of those with a known target gene and a result. 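Extra replicates exist only for a retested subset of genes; insulin dose and duration not given; both raised and lowered dpERK matter.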 Names joined by + are all predicted targets of the reagent. Not given: the amount of reagent, the time to read-out.

gene knocked down | dsRNA | replicate 1, z-score of dpERK with insulin | replicate 2, z-score of dpERK with insulin | replicate 1, z-score of dpERK under basal conditions | replicate 1, z-score of ERK-YFP with insulin
COX1 (retired record) | DRSC21275 | 0.51 | -0.36 | -0.11 | -0.67
Cyp6a13 | DRSC07375 | 0.14 | -0.09 | 0.25 | 0.41
CG14609 | DRSC12553 | -0.56 | -1.12 | -0.04 | 0.91
CG15435 | DRSC00450 | 0.51 | 0.36 | -0.54 | -0.27
Eig71Ej | DRSC11157 | -0.06 | -0.14 | 0.26 | 0.33
CG7017 | DRSC10762 | 1.12 | 0.73 | -1.26 | -0.43
Uhg3 | DRSC22963 | 0.56 | -1.79 | -0.63 | 0.1
Osi6 | DRSC12128 | 0.38 | -0.04 | 0.7 | -1.34
Cyp4ad1 | DRSC07369 | -0.52 | 0 | -0.22 | 0.43
Yod1 | DRSC10433 | 0.48 | 1.26 | 0.83 | 0.07
Tsp42Ej | DRSC06113 | -0.64 | -0.31 | -0.28 | 0.8
CG34056 | DRSC08374 | 0.4 | -0.65 | -1.84 | 0.13
Taf5 | DRSC07562 | 0.82 | 0.84 | -2.19 | 1.02
Ir94a | DRSC13538 | -0.95 | -0.4 | 0.3 | -0.44
CG42795 | DRSC12772 | -0.81 | -0.35 | -0.2 | 0.69
CG42795 | DRSC15533 | 0 | 0.52 | 0.05 | -0.7
CG13198 | DRSC06323 | 0.67 | -0.18 | 0.06 | -0.18
gnu | DRSC10497 | -0.58 | -0.95 | 0.56 | -0.39
Doc3 | DRSC10480 | 0.13 | 0.04 | -0.27 | 0.13
Ccdc39 | DRSC12286 | -0.18 | -0.31 | 0.73 | 0.38
Or22b | DRSC00765 | 0.06 | -0.48 | -0.3 | 0.54
CG6870 | DRSC02998 | 0.35 | -0.03 | 0.08 | -0.1
C1GalTA | DRSC03246 | 0.59 | 0.25 | 1.73 | 0.1
Ir67b | DRSC09876 | 0.39 | 1.63 | 0.45 | 0.04
Gk1 | DRSC08533 | -0.33 | 0.22 | 0.68 | 0.51
Gk1 | DRSC08534 | -1.26 | -1.49 | -0.24 | 0.18
sli | DRSC07684 | 0.81 | -0.25 | -0.88 | -0.63
sli | DRSC22936 | -1.09 | -0.27 | -0.71 | -0.32

Continued, starting with the last 8 of the part before.
gene knocked down | dsRNA | replicate 1, z-score of dpERK with insulin | replicate 2, z-score of dpERK with insulin | replicate 1, z-score of dpERK under basal conditions | replicate 1, z-score of ERK-YFP with insulin
Or22b | DRSC00765 | 0.06 | -0.48 | -0.3 | 0.54
CG6870 | DRSC02998 | 0.35 | -0.03 | 0.08 | -0.1
C1GalTA | DRSC03246 | 0.59 | 0.25 | 1.73 | 0.1
Ir67b | DRSC09876 | 0.39 | 1.63 | 0.45 | 0.04
Gk1 | DRSC08533 | -0.33 | 0.22 | 0.68 | 0.51
Gk1 | DRSC08534 | -1.26 | -1.49 | -0.24 | 0.18
sli | DRSC07684 | 0.81 | -0.25 | -0.88 | -0.63
sli | DRSC22936 | -1.09 | -0.27 | -0.71 | -0.32
CG6154 | DRSC15977 | -0.11 | -0.04 | -0.52 | 0.54
dop | DRSC10655 | 1.48 | 2.11 | 2.48 | -0.17
CG8407 | DRSC07167 | 0.88 | -2.67 | -1.03 | -0.43
CG34144 (retired record) | DRSC18885 | -1.14 | -0.07 | 0.48 | 0.5
CG34144 (retired record) | DRSC19380 | 1.05 | 0.57 | -0.39 | -0.67
CG34144 (retired record) | DRSC19480 | -2.11 | -0.14 | 1.04 | 1.77
CG32944 | DRSC12138 | -0.57 | 0.3 | -0.09 | 0.42
CG32944 | DRSC12341 | -0.84 | -0.37 | -0.91 | 0.32
CG31626 + CG8677 | DRSC21844 | 1.2 | 0.91 | -1.07 | -1.09
CG17192 | DRSC15186 | 0.01 | -0.1 | -0.1 | -0.02
CG8915 | DRSC20119 | -0.74 | 0.01 | -0.73 | -0.29
mRpL49 | DRSC19908 | -0.96 | -0.05 | -0.04 | 1.82
eIF2Bgamma | DRSC07100 | -0.28 | -0.54 | 0.04 | -0.52
twf | DRSC15466 | 0.67 | 0.16 | -0.33 | 0.96
bdl | DRSC00271 | -0.04 | 0.54 | -0.21 | 0.14
CG31140 | DRSC13649 | 0.37 | 0.25 | 0.32 | -0.1
CG31140 | DRSC14603 | 0.22 | 0.91 | -1.66 | 0.82
CG31140 | DRSC15904 | -0.18 | 0 | 0.19 | 0.49
Cpsf6 | DRSC10781 | -2.52 | -2.26 | -0.5 | 4.34
sol | DRSC20587 | 2.7 | 1.42 | 0.71 | 0.89
knrl | DRSC11892 | 0.03 | 0.12 | -0.74 | 0.05
l(1)G0004 | DRSC20486 | -0.05 | -0.71 | -0.45 | -0.06
CG34316 + asRNA:CR43471 | DRSC13080 | -0.24 | 0.06 | 0.6 | 1.02
CG11755 | DRSC14374 | 0.25 | 0.57 | -1.03 | -0.16
CG15362 | DRSC00392 | -0.55 | -0.22 | 0.13 | 0.41
CG43188 | DRSC05260 | 0.48 | 0.11 | -0.68 | -0.38
CheA75a | DRSC10807 | -0.13 | -0.02 | -0.13 | -0.28
CG17108 | DRSC02576 | 0.21 | 0.67 | -1.14 | 0.05
CG17108 | DRSC22214 | -1.57 | 0.06 | -0.28 | 0.95
